Results taken from the supplement of paper PMC7666118.
The list shows a part of the results.

By UniProt entry, the sequences of proteins in these tests, tags left out. Where a name states a change or a piece, a line headed by the entry shows the natural chain unless it says otherwise.
UniProt Q15386: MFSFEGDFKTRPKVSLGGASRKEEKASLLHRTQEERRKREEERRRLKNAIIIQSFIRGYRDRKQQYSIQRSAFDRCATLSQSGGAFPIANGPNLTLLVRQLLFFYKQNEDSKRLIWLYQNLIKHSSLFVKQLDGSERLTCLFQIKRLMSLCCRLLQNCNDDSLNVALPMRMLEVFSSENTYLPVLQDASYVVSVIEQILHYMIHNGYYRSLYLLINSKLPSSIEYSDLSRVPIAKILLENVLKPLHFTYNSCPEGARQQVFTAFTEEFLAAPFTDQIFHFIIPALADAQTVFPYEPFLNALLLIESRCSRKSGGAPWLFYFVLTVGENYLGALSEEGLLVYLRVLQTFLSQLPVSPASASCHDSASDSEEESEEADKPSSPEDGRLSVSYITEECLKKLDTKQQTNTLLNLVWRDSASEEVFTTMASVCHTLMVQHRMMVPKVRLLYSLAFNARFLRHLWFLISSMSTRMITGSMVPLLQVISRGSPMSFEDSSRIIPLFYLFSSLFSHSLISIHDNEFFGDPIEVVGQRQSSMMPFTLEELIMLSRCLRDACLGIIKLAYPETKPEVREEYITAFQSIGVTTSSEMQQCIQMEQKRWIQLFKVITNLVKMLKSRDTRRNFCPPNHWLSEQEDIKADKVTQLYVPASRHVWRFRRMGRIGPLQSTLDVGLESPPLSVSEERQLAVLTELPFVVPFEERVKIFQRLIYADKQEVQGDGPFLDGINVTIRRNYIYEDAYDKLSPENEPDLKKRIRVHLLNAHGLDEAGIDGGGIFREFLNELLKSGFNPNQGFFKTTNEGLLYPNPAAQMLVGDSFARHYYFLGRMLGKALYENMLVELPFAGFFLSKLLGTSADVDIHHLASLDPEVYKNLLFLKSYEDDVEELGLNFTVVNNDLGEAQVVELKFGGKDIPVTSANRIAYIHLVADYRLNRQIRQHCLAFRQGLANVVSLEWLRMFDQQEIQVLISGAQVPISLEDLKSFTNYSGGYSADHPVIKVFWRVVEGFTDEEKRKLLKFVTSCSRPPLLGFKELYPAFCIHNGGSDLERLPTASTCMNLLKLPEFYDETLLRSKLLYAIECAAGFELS
UniProt P31930: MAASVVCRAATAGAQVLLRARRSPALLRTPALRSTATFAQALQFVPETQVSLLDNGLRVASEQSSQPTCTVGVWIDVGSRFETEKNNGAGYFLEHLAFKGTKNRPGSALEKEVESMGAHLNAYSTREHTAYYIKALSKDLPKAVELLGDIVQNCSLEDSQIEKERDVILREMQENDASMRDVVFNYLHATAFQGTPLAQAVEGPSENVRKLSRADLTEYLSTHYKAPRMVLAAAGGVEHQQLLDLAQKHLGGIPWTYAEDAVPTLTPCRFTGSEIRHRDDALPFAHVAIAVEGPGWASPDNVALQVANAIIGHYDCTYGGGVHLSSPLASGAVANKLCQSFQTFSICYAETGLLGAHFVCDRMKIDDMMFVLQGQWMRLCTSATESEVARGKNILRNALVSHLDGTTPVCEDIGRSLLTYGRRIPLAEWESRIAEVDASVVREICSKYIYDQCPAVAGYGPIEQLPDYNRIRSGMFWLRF
UniProt Q96QT4: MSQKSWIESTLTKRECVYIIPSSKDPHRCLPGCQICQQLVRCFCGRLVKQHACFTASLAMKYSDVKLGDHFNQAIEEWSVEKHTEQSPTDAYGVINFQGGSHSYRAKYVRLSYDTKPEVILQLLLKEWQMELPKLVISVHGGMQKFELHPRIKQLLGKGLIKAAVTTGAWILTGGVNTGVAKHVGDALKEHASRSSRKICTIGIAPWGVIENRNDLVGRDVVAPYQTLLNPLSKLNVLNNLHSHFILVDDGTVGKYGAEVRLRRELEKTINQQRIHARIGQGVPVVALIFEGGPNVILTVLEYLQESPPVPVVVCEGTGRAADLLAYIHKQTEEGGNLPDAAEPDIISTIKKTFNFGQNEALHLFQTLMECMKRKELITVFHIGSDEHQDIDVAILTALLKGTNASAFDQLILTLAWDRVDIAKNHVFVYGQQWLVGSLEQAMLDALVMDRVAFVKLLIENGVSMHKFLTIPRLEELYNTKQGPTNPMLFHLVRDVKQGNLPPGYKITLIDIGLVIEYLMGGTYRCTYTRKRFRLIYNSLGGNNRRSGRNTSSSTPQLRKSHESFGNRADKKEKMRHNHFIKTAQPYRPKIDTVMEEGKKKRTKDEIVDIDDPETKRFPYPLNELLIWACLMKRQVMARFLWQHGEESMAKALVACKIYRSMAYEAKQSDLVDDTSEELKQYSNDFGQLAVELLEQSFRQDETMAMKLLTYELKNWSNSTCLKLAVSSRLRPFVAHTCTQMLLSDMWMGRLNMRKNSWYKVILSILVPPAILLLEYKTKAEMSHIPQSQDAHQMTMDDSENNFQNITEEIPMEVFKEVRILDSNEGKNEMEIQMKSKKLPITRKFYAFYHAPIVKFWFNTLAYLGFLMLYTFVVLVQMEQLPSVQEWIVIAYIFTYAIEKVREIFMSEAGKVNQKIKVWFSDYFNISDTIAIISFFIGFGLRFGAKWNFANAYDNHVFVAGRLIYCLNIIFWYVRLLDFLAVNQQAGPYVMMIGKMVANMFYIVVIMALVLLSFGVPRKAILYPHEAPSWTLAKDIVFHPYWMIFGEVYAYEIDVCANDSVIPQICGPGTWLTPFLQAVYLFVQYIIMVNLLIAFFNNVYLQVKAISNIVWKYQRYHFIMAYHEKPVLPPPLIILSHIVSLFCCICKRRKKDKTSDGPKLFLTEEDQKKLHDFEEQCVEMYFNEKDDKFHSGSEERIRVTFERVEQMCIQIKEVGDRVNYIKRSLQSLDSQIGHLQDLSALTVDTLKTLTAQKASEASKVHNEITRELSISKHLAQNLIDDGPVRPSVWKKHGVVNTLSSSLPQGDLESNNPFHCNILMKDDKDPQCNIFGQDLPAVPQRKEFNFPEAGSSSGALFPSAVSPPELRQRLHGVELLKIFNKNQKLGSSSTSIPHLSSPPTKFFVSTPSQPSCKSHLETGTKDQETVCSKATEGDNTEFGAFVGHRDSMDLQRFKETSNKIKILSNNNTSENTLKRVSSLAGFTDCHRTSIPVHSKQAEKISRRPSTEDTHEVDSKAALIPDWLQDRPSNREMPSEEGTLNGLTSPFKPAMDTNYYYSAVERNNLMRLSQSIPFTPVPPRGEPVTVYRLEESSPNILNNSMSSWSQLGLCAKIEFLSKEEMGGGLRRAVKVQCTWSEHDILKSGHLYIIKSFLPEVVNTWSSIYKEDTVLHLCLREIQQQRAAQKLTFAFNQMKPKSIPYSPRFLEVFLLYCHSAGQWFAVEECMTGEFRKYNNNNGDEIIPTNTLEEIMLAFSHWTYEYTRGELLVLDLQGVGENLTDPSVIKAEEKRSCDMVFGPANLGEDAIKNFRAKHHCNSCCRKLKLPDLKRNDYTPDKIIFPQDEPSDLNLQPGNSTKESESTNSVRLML
UniProt Q8NB14: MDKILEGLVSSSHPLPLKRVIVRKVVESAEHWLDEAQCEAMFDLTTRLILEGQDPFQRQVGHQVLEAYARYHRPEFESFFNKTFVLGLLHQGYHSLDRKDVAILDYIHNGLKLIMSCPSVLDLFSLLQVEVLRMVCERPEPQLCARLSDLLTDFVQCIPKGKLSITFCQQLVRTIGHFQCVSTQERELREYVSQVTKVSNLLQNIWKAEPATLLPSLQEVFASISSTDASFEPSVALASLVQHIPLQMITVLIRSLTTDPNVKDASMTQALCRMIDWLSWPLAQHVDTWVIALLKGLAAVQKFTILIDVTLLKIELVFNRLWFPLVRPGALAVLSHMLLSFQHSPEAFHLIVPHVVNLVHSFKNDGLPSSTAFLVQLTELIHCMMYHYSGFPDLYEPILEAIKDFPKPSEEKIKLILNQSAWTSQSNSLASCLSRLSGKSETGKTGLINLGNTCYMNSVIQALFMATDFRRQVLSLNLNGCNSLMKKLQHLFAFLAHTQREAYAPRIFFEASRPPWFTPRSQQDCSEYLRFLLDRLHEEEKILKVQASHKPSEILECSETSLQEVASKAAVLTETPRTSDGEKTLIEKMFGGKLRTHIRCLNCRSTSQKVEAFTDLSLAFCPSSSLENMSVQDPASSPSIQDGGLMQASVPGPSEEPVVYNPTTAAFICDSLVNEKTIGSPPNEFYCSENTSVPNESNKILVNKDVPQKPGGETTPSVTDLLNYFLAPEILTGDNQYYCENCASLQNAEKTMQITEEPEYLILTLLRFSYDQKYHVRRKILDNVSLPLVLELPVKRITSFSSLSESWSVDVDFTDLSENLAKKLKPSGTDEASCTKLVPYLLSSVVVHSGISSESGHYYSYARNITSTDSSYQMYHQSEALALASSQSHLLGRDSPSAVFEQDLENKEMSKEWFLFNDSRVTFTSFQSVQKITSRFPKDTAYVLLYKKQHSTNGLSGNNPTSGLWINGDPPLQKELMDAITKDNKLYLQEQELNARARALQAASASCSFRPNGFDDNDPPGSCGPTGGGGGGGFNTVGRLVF
UniProt O43715: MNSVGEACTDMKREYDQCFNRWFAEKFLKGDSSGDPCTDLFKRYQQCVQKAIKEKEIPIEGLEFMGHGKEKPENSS
UniProt Q9UJA5: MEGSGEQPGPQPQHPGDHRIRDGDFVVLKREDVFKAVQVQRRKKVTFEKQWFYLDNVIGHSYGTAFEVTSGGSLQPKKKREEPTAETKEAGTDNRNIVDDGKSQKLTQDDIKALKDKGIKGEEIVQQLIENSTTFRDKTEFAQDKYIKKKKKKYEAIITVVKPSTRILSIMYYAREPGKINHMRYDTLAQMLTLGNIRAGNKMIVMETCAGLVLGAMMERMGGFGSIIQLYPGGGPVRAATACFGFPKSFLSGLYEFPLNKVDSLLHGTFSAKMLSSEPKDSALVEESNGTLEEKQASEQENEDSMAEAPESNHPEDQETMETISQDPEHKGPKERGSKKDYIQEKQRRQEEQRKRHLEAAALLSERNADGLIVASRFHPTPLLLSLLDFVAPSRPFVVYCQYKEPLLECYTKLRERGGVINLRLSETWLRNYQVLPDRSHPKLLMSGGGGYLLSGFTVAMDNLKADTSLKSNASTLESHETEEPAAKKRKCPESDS
UniProt Q96Q11: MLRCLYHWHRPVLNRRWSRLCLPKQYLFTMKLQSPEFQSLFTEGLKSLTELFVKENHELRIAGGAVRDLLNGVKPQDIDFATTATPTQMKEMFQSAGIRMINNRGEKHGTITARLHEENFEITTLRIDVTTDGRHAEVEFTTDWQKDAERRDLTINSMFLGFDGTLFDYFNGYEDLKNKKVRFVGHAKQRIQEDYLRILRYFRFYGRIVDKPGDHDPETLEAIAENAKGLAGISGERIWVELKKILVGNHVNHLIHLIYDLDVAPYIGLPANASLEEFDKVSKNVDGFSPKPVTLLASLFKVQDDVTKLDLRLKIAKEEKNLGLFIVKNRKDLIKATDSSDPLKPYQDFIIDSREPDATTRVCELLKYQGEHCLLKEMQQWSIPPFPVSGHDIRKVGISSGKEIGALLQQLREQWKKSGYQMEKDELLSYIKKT
UniProt Q7Z4G4: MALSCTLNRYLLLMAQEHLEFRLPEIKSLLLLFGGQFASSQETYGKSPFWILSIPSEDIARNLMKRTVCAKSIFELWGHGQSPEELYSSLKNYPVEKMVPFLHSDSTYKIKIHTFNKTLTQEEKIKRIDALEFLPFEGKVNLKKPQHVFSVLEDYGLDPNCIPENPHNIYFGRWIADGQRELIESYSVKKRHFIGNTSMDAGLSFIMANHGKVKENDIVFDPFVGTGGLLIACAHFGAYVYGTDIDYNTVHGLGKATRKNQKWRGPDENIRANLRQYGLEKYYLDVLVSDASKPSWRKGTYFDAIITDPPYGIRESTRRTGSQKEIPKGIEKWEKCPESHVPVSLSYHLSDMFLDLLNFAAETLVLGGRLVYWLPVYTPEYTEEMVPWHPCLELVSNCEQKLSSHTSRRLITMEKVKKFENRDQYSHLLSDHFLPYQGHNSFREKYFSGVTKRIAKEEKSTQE
UniProt O95881: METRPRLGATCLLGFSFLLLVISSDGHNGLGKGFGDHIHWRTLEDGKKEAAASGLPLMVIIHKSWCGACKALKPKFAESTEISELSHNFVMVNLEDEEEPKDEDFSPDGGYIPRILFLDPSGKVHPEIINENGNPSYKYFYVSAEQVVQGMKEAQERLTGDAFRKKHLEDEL
UniProt Q6ZMU5: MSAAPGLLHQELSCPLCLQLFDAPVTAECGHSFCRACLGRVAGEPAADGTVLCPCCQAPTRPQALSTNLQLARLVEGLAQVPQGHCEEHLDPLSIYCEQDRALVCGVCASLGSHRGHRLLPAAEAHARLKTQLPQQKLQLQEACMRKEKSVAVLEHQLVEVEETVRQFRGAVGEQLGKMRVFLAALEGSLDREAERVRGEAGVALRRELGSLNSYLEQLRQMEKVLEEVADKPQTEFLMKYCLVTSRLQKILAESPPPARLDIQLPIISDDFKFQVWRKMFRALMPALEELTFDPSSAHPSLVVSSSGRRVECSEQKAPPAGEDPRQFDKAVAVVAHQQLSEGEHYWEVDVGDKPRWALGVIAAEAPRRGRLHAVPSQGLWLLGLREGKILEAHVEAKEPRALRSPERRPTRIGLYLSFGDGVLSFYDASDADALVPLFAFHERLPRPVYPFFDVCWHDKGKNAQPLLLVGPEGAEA

Each target was assayed with COc1ccc(Cn2ccc3ccc(C(=O)NO)cc32)cc1 (assay: dose-dependent thermal stabilisation call (2D-TPP, DLPTP, 10% FDR) (binary (1 = stabilised)); higher = stabilised by the compound). Conditions: system: HL-60 intact cells; concentration range 0.04-10 µM.

| Target | dose-dependent thermal stabilisation call |
| --- | --- |
| UBE3C (UniProt Q15386) | inactive: 0 |
| UQCRC1 (UniProt P31930) | inactive: 0 |
| TRPM7 (UniProt Q96QT4) | inactive: 0 |
| TSC1 (UniProt Q92574) | inactive: 0 |
| USP38 (UniProt Q8NB14) | inactive: 0 |
| TRIAP1 (UniProt O43715) | inactive: 0 |
| TRMT6 (UniProt Q9UJA5) | inactive: 0 |
| TRNT1 (UniProt Q96Q11) | inactive: 0 |
| TRMT11 (UniProt Q7Z4G4) | inactive: 0 |
| TXNDC12 (UniProt O95881) | inactive: 0 |
| TRIM72 (UniProt Q6ZMU5) | inactive: 0 |
